Here are results for nine molecules from article doi:10.1101/232272.

Protein sequences, listed by entry. Tags and fused reporters are not part of them. Lines headed by an entry give the natural chain unless they say otherwise; changes in a name come on top.
UniProt Q9Y0Y5: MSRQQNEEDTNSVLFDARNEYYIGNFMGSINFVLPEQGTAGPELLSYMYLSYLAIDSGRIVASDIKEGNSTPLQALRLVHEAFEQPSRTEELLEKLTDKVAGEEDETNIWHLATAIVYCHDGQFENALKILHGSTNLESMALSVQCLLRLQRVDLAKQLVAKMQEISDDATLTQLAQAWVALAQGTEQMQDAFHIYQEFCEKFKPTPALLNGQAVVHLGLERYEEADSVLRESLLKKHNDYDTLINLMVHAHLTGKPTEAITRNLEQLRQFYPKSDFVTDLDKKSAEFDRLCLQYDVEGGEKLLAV

Read-outs that look alike come from different tables or passages of the source. No constants are given. Whether binding was seen depends on the method and setting. Binding seen in cells or lysates may run through a third protein. Here binding means that the protein was enriched with, or labelled near, the bait; the list need not be complete. Where a sequence is shown, tags or fusion partners need not be part of it.

Common to all, as to assay: affinity purification with mass spectrometry
The target in test [1] is T1, GFP-Gorab in D-Mel cells (poly-Ubiquitin-GFP-Gorab or pMT-GFP-Gorab) (Drosophila) (UniProt Q8IQQ4).
T1 sequence: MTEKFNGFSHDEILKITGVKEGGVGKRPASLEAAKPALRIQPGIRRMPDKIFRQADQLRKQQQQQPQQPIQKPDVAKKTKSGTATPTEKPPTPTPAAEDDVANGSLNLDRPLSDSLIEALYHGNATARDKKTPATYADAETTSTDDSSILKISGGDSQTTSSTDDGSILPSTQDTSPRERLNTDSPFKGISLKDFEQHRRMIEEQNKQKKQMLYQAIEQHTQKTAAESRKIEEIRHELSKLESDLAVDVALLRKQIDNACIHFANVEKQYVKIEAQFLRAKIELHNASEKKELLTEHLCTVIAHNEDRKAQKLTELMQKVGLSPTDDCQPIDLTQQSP

The target of test [2] is T2, GFP-tagged Sas6 (polyUbiquitin-Sas6-GFP transgene) (Drosophila) (UniProt Q9VAC8).
T2 sequence: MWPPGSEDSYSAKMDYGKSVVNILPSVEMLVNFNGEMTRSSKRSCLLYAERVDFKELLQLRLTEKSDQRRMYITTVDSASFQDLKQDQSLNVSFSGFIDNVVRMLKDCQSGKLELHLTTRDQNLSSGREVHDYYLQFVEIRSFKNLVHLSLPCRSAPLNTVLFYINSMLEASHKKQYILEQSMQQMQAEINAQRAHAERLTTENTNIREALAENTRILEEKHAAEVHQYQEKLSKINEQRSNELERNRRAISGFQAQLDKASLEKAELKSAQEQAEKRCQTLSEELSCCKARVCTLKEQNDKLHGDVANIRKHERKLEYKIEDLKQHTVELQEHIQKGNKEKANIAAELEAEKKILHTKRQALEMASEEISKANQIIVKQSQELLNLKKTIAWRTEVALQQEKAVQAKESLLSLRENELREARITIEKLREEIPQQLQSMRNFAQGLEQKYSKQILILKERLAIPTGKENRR

Test [3] deals with T3, Protein-A-tagged Sas6 (Drosophila) (UniProt Q9VAC8).
T3 sequence: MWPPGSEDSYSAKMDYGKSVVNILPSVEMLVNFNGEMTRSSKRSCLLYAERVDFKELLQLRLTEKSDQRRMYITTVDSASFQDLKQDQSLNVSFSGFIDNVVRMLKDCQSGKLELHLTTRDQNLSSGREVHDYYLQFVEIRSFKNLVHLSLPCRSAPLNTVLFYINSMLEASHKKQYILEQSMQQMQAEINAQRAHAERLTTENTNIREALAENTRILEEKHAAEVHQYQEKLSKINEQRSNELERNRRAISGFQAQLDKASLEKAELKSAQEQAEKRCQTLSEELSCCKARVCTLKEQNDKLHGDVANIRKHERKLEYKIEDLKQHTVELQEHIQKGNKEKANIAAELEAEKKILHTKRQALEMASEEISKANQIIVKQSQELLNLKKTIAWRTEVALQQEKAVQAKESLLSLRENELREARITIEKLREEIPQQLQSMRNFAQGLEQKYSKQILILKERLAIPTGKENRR

Test [4] addresses T1, GFP-Gorab in D-Mel cells (poly-Ubiquitin-GFP-Gorab or pMT-GFP-Gorab) (Drosophila). This is another data set of the same source.
In test [5] the target is T4, GFP-Gorab (poly-Ubiquitin-GFP-Gorab) in embryos (Drosophila) (UniProt Q8IQQ4).
T4 sequence: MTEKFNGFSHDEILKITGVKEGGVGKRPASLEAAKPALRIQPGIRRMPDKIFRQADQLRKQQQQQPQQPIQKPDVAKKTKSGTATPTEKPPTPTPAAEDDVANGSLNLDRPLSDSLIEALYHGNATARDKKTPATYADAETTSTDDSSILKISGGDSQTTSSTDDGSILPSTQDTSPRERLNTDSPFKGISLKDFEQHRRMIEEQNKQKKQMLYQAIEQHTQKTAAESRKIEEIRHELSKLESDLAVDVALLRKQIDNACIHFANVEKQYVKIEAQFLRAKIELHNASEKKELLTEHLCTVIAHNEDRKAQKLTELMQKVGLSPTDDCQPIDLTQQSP

Take “εCOP subunit of the COPI coatomer complex (from UniProt Q9Y0Y5)”: the binding entry in test [1] was “binds”. Still for that read-out and setting: the same measure for “αCOP subunit of the COPI coatomer complex (Drosophila (endogenous in D-Mel cells))”: “binds”.

B1: Gorab (CG33052 gene product), endogenous in embryos (protein, UniProt Q8IQQ4 1-338)
chain: MTEKFNGFSHDEILKITGVKEGGVGKRPASLEAAKPALRIQPGIRRMPDKIFRQADQLRKQQQQQPQQPIQKPDVAKKTKSGTATPTEKPPTPTPAAEDDVANGSLNLDRPLSDSLIEALYHGNATARDKKTPATYADAETTSTDDSSILKISGGDSQTTSSTDDGSILPSTQDTSPRERLNTDSPFKGISLKDFEQHRRMIEEQNKQKKQMLYQAIEQHTQKTAAESRKIEEIRHELSKLESDLAVDVALLRKQIDNACIHFANVEKQYVKIEAQFLRAKIELHNASEKKELLTEHLCTVIAHNEDRKAQKLTELMQKVGLSPTDDCQPIDLTQQSP
As to B1, in test [2], the binding result is “binds”.

B2: Gorab (CG33052 gene product), endogenous in cultured cells (protein, UniProt Q8IQQ4 1-338)
chain: MTEKFNGFSHDEILKITGVKEGGVGKRPASLEAAKPALRIQPGIRRMPDKIFRQADQLRKQQQQQPQQPIQKPDVAKKTKSGTATPTEKPPTPTPAAEDDVANGSLNLDRPLSDSLIEALYHGNATARDKKTPATYADAETTSTDDSSILKISGGDSQTTSSTDDGSILPSTQDTSPRERLNTDSPFKGISLKDFEQHRRMIEEQNKQKKQMLYQAIEQHTQKTAAESRKIEEIRHELSKLESDLAVDVALLRKQIDNACIHFANVEKQYVKIEAQFLRAKIELHNASEKKELLTEHLCTVIAHNEDRKAQKLTELMQKVGLSPTDDCQPIDLTQQSP
For the molecule B2, in test [3], the binding result is on record as “binds”.

B3: β’COP subunit of the COPI coatomer complex (protein, UniProt O62621 1-914)
chain: MPLKLDIKRRLTSRSDRVKCVDLHPAEPWMLCALYNGHVHIMNYENQQMVKDFEVCDVPVRSARFVARKNWILTGSDDMQIRVFNYNTLEKVHSFEAHSDYLRCIAVHPTQPLVLTSSDDMLIKLWNWEKMWACQRVFEGHTHYVMQIVFNPKDNNTFASASLDRTVKVWQLGSNFANFTLEGHEKGVNCVDYYHGGDKPYLISGADDRLVKIWDYQNKTCVQTLEGHAQNISAVCFHPELPIVLTGSEDGTVRIWHSGTYRLETCLNYGFERVWTISSMRGTNNVALGYDEGSIIIKVGREEPAMSMDVVGSKIIWAKHSEMQQVNLKTIADGTEIKDGERLPVATKDMGACEIYPQTIAHNPNGRFVVVCGDGEYIIYTSMALRNKAFGSAQEFVWALESNEYAIRENNGTVRLFRNFKERKSFTPEYGAESIYGGYYFGVKTSSGLAFYDWETLQLVRRIEVQPKNVFWNESGSLVCLATDDSYFVLGVDTAQVANAVETKEGLEDDGVESAFNVLGEVSECVKTGLWVGDCFIYTNSVNRINYYVGGEIVTVSHLDRTMYLLGYVPKDNRIYLGDKELNVISFCLQLSVLEYQTAVMRRDFERADVVLPTIPKEHRTRVAHFLEKQGFKSQALQVSTDADHKFDLALQIGDLEIALKLARESENSQKWSQLADVASSKNNMSLVKECMQKANDLSGLLLLSTASGDAQLLEVVGAAGSAQGHHNLAFLSAFLRSDVERCLEILIETNRLPEAAFFARTYLPSQMSRIVELWREKLGKVNEKAGQSLADPAQYTNLFPGLGDALRVEQHLQEERARKAPARLAANLPLNSERHPLQELFAAEQGAAGQHLEEKVKPAYVPAQAVVSSSQVAEPTSAADDDDDLDLEIDGITLDDNIDTTDVNLDDDFLSDD
For B3, in test [4], the binding result is “binds”.

B4: βCOP subunit of the COPI coatomer complex (protein, UniProt P45437 1-964)
chain: MTSQVPCYTIINSPDLEVTNEMQLKRDLEKGDTNVKIETLKRVIKLLLNGERYPGLIMTIIRFVLPVQNHTIKKLLLIFWEIVPKTSADGKLLQEMILVCDAYRKDLQHPNEFLRGSTLRFLCKLKEPELLEPLMPAIRACLDHRHSYVRRNAVLAIFTIYKNFDWLVPDGPELIASFLDTQQDMSCKRNAFLMLLHADQERALNYLASCIDQVHTFGDILQLVIVELIYKVCHANPAERSRFIRCIYNLLNSSSNAVRYESAGTLITLSLAPTAIKAAASCYIELVVKESDNNVKLIVLDRLVAMKEHEGMEKVMQDLVMDVLRVLAAPDIEVRRKTLALALDLVYSRNIGEMVLVLKKEVAKTHNVEHEDTGKYRQLLVRTLHTCSIKFPDVAANVIPVLVEFLSDTNELAAADVLIFIREAIQKFPALRALIIEHLIEAFPQIKSSKIHRAAVWILGEYVEGSQILEVIAVIQQTLGEVPMVEAEQRRLAGDQTEEQKQQQGSAGGNAAGSAAEGSGSGNASNKVTSDGTYATQSAYSLAPVAKAEKRPPLRQYLMDGDFFIGAALSATLTKLALRYAELETEARAQNRLTTQVMLIMSSILHLGKSGFPSKPITNDDTDRIFVCLRTLSERTPEAISVFTLYCREALGKMLDAQHDEDQRMLKEKQKATAKVQPDDPVLFAQLSNGRDNQLGENVFESSLNQALAGSKNAQLSDVASPNSKLNKVTQLTGFSDPVYAEAYVNVNQYDIVLDVLIVNQTNDTLQNCTLELATLGDLKLVERPHPVVLAPHDFCNIKANVKVSSTENGIIFGNIVYETALNTNVVVLNTIHIDIMDYIIPASCTDTEFRQMWQDFEWENKVTVNTSFTDLHEYLKHLLKSTNMKCLTPEKALSGQCGFMAANMYAKSIFGENALANLSIEKPVDDPDSKVTGHIRIRAKSQGMALSLGDKISSSQKQSVQAA
Take B4: the binding entry in test [4] is reported as “binds”.

B5: γCOP subunit of the COPI coatomer complex (protein, UniProt Q8I0G5 1-883)
chain: MNYFSLTSHKKHRGHPSAGPSNAYQNLEKTSVLQETRTFNETPVNPRKCIHILTKILYLINQGEQLVAREATDCFFAMTKLFQSKDVVLRRMVYLGIKELSSIAEDVIIVTSSLTKDMTGKEDLYRAAAIRALCSITDNTMLQAVERYMKQCIVDKNAAVSCAALVSSLRLANTAGDVVKRWANEAQEALNSDNIMVQYHALGLLYHIRKSDRLAVSKLVNKLTRGSLKSPYAVCMLIRIACKLIEEEDIPSEELSDSPLFTFIESCLRHKSEMVIYEAAHAIVNLKNTNPRMLSPAFSILQLFCSSPKATLRFAAVRTLNKVAMTHPAAVTTCNLDLEGLITDSNRSVATLAITTLLKTGAESSVERLMKQISTFVAEISDEFKVVVVQAICALCTKYPRKHTVLMNFLSGMLREEGGLEYKTSIVDTIITIIEENADAKESGLSHLCEFIEDCEHVSLAVRILHLLGKEGPFAATPSKYIRFIYNRVILESPIVRAAAVTAMAQFGASCPALLSNILVLLGRCQMDPDDEVRDRATYYLSILNSERPELYKNYIIERENCSLALLEKSLVEHLNGDVDTRFDISIVPKAAIVKPVIANDVMLVTSSAPRPPKITREEESAARLAQLPGIQVLGPIHRSTAPIQLTESETEYTVQCIKHIFGQHVVFQFDCLNTLSDQILENVRVELTLPEGFTTRAVIPCPKLPYNDLQTTFVIVEFPPDAANSIATFGATLRFVVKDCDPNTGEPESEEGYDDEYMLEDLELTVADQIQKTRKNNFQVSWDAADSEEWLQAEDTFVLSAVTTLQDAVNTIVKILGLGAANLSENVPEGTHLHTLLCSGTFRGGAEILVRAKLALSEGVTLNLTVRSTDQDVAELITAAIG
As to B5, the binding result in test [4] is “binds”.

B6: Sas6, endogenous in embryos (protein, UniProt Q9VAC8 1-472)
chain: MWPPGSEDSYSAKMDYGKSVVNILPSVEMLVNFNGEMTRSSKRSCLLYAERVDFKELLQLRLTEKSDQRRMYITTVDSASFQDLKQDQSLNVSFSGFIDNVVRMLKDCQSGKLELHLTTRDQNLSSGREVHDYYLQFVEIRSFKNLVHLSLPCRSAPLNTVLFYINSMLEASHKKQYILEQSMQQMQAEINAQRAHAERLTTENTNIREALAENTRILEEKHAAEVHQYQEKLSKINEQRSNELERNRRAISGFQAQLDKASLEKAELKSAQEQAEKRCQTLSEELSCCKARVCTLKEQNDKLHGDVANIRKHERKLEYKIEDLKQHTVELQEHIQKGNKEKANIAAELEAEKKILHTKRQALEMASEEISKANQIIVKQSQELLNLKKTIAWRTEVALQQEKAVQAKESLLSLRENELREARITIEKLREEIPQQLQSMRNFAQGLEQKYSKQILILKERLAIPTGKENRR
Take B6: the binding entry in test [5] is recorded as “binds”.

B7: Sas6, endogenous in cultured cells (protein, UniProt Q9VAC8 1-472)
chain: MWPPGSEDSYSAKMDYGKSVVNILPSVEMLVNFNGEMTRSSKRSCLLYAERVDFKELLQLRLTEKSDQRRMYITTVDSASFQDLKQDQSLNVSFSGFIDNVVRMLKDCQSGKLELHLTTRDQNLSSGREVHDYYLQFVEIRSFKNLVHLSLPCRSAPLNTVLFYINSMLEASHKKQYILEQSMQQMQAEINAQRAHAERLTTENTNIREALAENTRILEEKHAAEVHQYQEKLSKINEQRSNELERNRRAISGFQAQLDKASLEKAELKSAQEQAEKRCQTLSEELSCCKARVCTLKEQNDKLHGDVANIRKHERKLEYKIEDLKQHTVELQEHIQKGNKEKANIAAELEAEKKILHTKRQALEMASEEISKANQIIVKQSQELLNLKKTIAWRTEVALQQEKAVQAKESLLSLRENELREARITIEKLREEIPQQLQSMRNFAQGLEQKYSKQILILKERLAIPTGKENRR
On to B7, for which the binding entry in test [4] is given as “binds”.
